Laboratory results: PubChem BioAssay AID1259254 (NCATS, 2017)

Screen: 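Finding genes that stop cells copying their DNA twice in one cycle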 (primary screen)
System: human HCT116 colorectal cancer cells
Knock-down reagent: single siRNA against human genes
Time to read-out: 3 days
Detection: 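Nuclei stained with Hoechst and imaged; cell-cycle phase assigned by DNA content; G2 share scaled per plate, non-targeting siRNA 0%, GMNN siRNA 100%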
Reading the numbers: G2 robust z-score and G2 cells, % of GMNN control: higher = more G2 cells, more excess DNA replication; raw share of cells in G2: higher = larger share of cells with G2 DNA content
Rule for the call: 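Active siRNAs have a G2 robust z of 5 or more median absolute deviations over the median, which in these data means about 38% or higher of GMNN control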
Here is one part, drawn at random, of about 59,000 reagents tested. About 1,550 of all reagents (2.6%) count as active. 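G2 share is only a proxy for re-replication; each gene was hit by three separate siRNAs, and active genes were retested.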 The raw values are shown without normalisation. Entries without a mark were called inactive. Reagents against one gene are numbered here. Not given: the amount of reagent.

target,reagent no.,G2 robust z-score,"G2 cells, % of GMNN control",raw share of cells in G2 (%)
HTR3A (GeneID 3359),1,0.017,3.09,6.41
HTR3A (GeneID 3359),2,0.00531,3,5.8
HTR3A (GeneID 3359),3,-0.578,-1.1,3.95
ENKUR (GeneID 219670),1,-0.0616,2.53,4.5
ENKUR (GeneID 219670),2,-0.724,-2.13,2.4
ENKUR (GeneID 219670),3,-0.575,-1.08,2.85
DISP3 (GeneID 57540),1,0.417,5.9,6.67
DISP3 (GeneID 57540),2,0.135,3.92,6.33
DISP3 (GeneID 57540),3,-0.909,-3.43,1.94
SBK1 (GeneID 388228),1,1.8,15.6,10.4
SBK1 (GeneID 388228),2,-0.694,-1.92,4.49
SBK1 (GeneID 388228),3,3.03,24.3,11.5
BRCA1 (GeneID 672),1,-0.608,-1.31,2.94
BRCA1 (GeneID 672),2,0.731,8.11,8.64
BRCA1 (GeneID 672),3,3.55,27.9,13.2
NARF (GeneID 26502),1,1.28,12,11.6
NARF (GeneID 26502),2,-0.73,-2.17,3.47
NARF (GeneID 26502),3,-0.769,-2.44,3.19
IFT81 (GeneID 28981),1,-0.892,-3.31,2.59
IFT81 (GeneID 28981),2,1.59,14.1,9.89
IFT81 (GeneID 28981),3,-0.156,1.87,3.84
OTUD5 (GeneID 55593),1,0.147,4,4.41
OTUD5 (GeneID 55593),2,-0.846,-2.99,3.38
OTUD5 (GeneID 55593),3,3.96,30.8,16.9
KCNE2 (GeneID 9992),1,-0.232,1.33,5.77
KCNE2 (GeneID 9992),2,4.09,31.8,15.5
KCNE2 (GeneID 9992),3,4.59,35.3,18.1
MOB3B (GeneID 79817),1,0.724,8.06,8.79
MOB3B (GeneID 79817),2,5.04 (active),38.4,18.1
MOB3B (GeneID 79817),3,-1.17,-5.28,2.83
NBEA (GeneID 26960),1,-0.319,0.726,4.13
NBEA (GeneID 26960),2,8.63 (active),63.7,28.6
NBEA (GeneID 26960),3,-0.53,-0.76,3.01
CXCL10 (GeneID 3627),1,0.0987,3.66,6.53
CXCL10 (GeneID 3627),2,0.622,7.34,7.12
CXCL10 (GeneID 3627),3,2.45,20.2,10.7
SULF2 (GeneID 55959),1,-0.839,-2.94,3.11
SULF2 (GeneID 55959),2,-1.37,-6.66,2.05
SULF2 (GeneID 55959),3,-1.47,-7.35,3.21
CTSG (GeneID 1511),1,0.0527,3.34,6.72
CTSG (GeneID 1511),2,-0.381,0.284,5.01
CTSG (GeneID 1511),3,-1.03,-4.29,2.31
TFRC (GeneID 7037),1,-0.737,-2.22,3.83
TFRC (GeneID 7037),2,-0.576,-1.09,4.6
TFRC (GeneID 7037),3,-0.496,-0.52,3.97
PBXIP1 (GeneID 57326),1,1.52,13.6,9.73
PBXIP1 (GeneID 57326),2,-0.972,-3.87,2.61
PBXIP1 (GeneID 57326),3,0.325,5.25,4.69
